# Legend:
# Chains of the proteins cited; added tags and fusions are not shown. Residues count along the entry.
# UniProt A6I4C9, 1-355: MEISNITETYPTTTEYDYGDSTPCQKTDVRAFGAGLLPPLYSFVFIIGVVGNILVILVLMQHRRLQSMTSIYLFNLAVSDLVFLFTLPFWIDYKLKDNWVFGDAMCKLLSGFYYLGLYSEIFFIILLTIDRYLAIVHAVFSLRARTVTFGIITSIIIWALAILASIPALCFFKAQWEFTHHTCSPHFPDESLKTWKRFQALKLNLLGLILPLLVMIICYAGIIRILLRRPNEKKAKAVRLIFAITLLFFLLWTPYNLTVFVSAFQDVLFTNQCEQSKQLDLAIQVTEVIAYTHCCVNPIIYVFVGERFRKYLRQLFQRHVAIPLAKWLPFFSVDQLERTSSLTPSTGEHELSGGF
# [1] = molecular target: rat CCR1 receptor (Rattus norvegicus, UniProt A6I4C9); assay: cell-based
# [2] = rat, in vivo, sc
smiles,measurement,setting,value
C[C@@H]1CN(Cc2ccc(F)cc2)CCN1C(=O)COc1ccc(Cl)cc1NC(N)=O [(2R)-1-((4-chloro-2-(ureido)phenoxy)methyl)carbonyl-2-methyl-4-(4-fluorobenzyl)piperazine],Ki,[1],121 ± 60 nM
same,Peak plasma levels,"[2]; male, Lewis, 50 mg/kg",12 to 27 µM
same,plasma drug levels after 8 hours,"[2]; male, Lewis, 50 mg/kg",1000 to 2000 nM
same,Absorption,[2],relatively rapid
same,drug levels over a 24 hour period,[2]; 50 mg/kg,adequate drug levels

# — US6740636B2 (priority 2000, dated 2004)
